Test results: paper PMC3224827

Key:
[1] = biological target: T1, hFRMD7-FL-HA (human FERM domain containing protein 7, original form, HA-tagged) (human) (UniProt Q6ZUT3); assay: co-IP; NT2 cells transiently co-transfected with hFRMD7-FL-HA and hFRMD7-S-Myc, lysed 48 h after transfection (M-PER); ProFound Co-Immunoprecipitation Kit; IP with anti-HA and blot with anti-Myc, and the reverse; controls: non-specific immunoglobulins, cells with only one construct
T1 sequence: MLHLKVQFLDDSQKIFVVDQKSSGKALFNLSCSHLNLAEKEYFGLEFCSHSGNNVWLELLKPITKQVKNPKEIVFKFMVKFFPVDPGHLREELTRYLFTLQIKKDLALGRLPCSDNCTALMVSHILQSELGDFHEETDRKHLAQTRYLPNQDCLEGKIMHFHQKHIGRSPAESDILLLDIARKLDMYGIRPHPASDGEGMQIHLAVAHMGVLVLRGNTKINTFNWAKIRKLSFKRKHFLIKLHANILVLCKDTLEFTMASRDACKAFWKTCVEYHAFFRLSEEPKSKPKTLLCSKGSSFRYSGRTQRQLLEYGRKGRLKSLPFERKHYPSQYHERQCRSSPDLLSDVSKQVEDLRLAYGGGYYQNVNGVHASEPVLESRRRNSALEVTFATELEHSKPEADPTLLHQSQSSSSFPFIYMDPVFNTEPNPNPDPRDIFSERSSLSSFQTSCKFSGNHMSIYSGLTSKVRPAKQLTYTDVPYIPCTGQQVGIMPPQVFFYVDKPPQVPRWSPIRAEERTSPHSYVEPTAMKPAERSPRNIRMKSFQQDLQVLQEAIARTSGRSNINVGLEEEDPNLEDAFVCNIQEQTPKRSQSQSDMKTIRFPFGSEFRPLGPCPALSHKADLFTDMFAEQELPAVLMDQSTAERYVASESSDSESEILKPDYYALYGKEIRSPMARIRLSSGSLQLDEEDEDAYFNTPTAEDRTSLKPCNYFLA

[2] = biological target: hFRMD7-S-Myc (human FRMD7 splice variant with shortened exon 4, Myc-tagged) (human); assay: as above

hFRMD7-S-Myc (human FRMD7 splice variant with shortened exon 4, Myc-tagged)
binding [1]: binds

B1: hFRMD7-FL-HA (human FERM domain containing protein 7, original form, HA-tagged) (protein, UniProt Q6ZUT3-1 1-714)
chain: MLHLKVQFLDDSQKIFVVDQKSSGKALFNLSCSHLNLAEKEYFGLEFCSHSGNNVWLELLKPITKQVKNPKEIVFKFMVKFFPVDPGHLREELTRYLFTLQIKKDLALGRLPCSDNCTALMVSHILQSELGDFHEETDRKHLAQTRYLPNQDCLEGKIMHFHQKHIGRSPAESDILLLDIARKLDMYGIRPHPASDGEGMQIHLAVAHMGVLVLRGNTKINTFNWAKIRKLSFKRKHFLIKLHANILVLCKDTLEFTMASRDACKAFWKTCVEYHAFFRLSEEPKSKPKTLLCSKGSSFRYSGRTQRQLLEYGRKGRLKSLPFERKHYPSQYHERQCRSSPDLLSDVSKQVEDLRLAYGGGYYQNVNGVHASEPVLESRRRNSALEVTFATELEHSKPEADPTLLHQSQSSSSFPFIYMDPVFNTEPNPNPDPRDIFSERSSLSSFQTSCKFSGNHMSIYSGLTSKVRPAKQLTYTDVPYIPCTGQQVGIMPPQVFFYVDKPPQVPRWSPIRAEERTSPHSYVEPTAMKPAERSPRNIRMKSFQQDLQVLQEAIARTSGRSNINVGLEEEDPNLEDAFVCNIQEQTPKRSQSQSDMKTIRFPFGSEFRPLGPCPALSHKADLFTDMFAEQELPAVLMDQSTAERYVASESSDSESEILKPDYYALYGKEIRSPMARIRLSSGSLQLDEEDEDAYFNTPTAEDRTSLKPCNYFLA
binding [2]: binds

No constants are given. Whether binding was seen depends on the method and setting. Binding seen in cells or lysates may run through a third protein. A result given as binding can be weak or reduced; the word gives no strength. Where a sequence is shown, tags or fusion partners need not be part of it.
